Data from patent publication US12344626B2, “Pharmaceutical compounds and therapeutic methods” (RUTGERS, THE STATE UNIVERSITY OF NEW JERSEY, priority 2019, dated 2025).
Some of these results come from one statement about several compounds together. At least one compound was matched to its structure with a doubt left.

Experiment: Solubility of zinc complexes
Assay type: physicochemical
Conditions: relative to Zn-1

## COc1ccnc(/C(C)=N/NC(=S)N(C)C)c1.COc1ccnc(/C(C)=N/NC(=S)N(C)C)c1.[Zn] [Zn-11, Zn[(E)-2-(1-(4-methoxypyridin-2-yl)ethylidene)-N,N-dimethylhydrazine-1-carbothioamide]2]
  More soluble in DMSO than Zn-1: at least 3 ×

## Zn[(E)-2-(1-(4-(2-methoxyethoxy)pyridin-2-yl)ethylidene)-N,N-dimethylhydrazine-1-carbothioamide]2 [ZN-8]
  More soluble in DMSO than Zn-1: at least 3 ×
